Values from PubChem BioAssay AID1671195 (Yale University, 2021).

- Aim: 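Knockdowns that increase or decrease uptake of fluorescent LDL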 (primary screen)
- Cell system: human Huh7 hepatoma cells
- Reagent: siRNA pool against human genes, 18 nM
- Time to read-out: about 2 to 2.5 days of knockdown, then 8 h LDL uptake
- Conditions: DiI-labelled LDL at 30 µg/ml for 8 h, in lipoprotein-deficient serum medium
- Read-out: 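Fluorescent LDL signal imaged in cells, scaled to the plate median, robust z-score for each replicate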
- Reading the numbers: robust z-score: higher = more LDL uptake after knockdown
- Active means: 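a gene counts as active if at least two replicate z-scores exceed ±2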
The whole screen tested about 22,000 reagents; shown is a random part of them. About 1,510 of them (6.9%) count as active. 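Active includes knockdowns raising or lowering LDL uptake; positive z-scores mean more uptake, negative mean less.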 Unmarked entries are inactive. Reagents against one gene are numbered here.

gene	pool no.	robust z-score, replicate 1	robust z-score, replicate 2	robust z-score, replicate 3
CNOT12	1	-0.609	-0.816	-0.732
MCOLN2	1	0.882	0.311	0.874
MORC1	1	-0.0148	0.166	0.613
SPMIP10	1	-0.413	-0.0831	-0.28
SMIM32	1	-0.108	0.155	0.023
ZDHHC21	1	0.604	0.826	0.832
CCDC144A	1	-0.36	-1	-1.79
POLR3A	1	-0.499	0.297	0.654
LOC388508 (retired record)	1	-1.1	-1.42	-1.4
SERPINB2	1	0.249	-0.533	-0.0147
CASP16P	1	0.0823	-0.813	-0.319
TLR4	1	0.46	-1.09	0.0341
EIF4E	1	-1.06	-0.924	-0.786
LOC389846 (retired record)	1	-0.235	-0.194	0.173
LINC00475	1	-0.15	1.02	-0.568
SRY	1	0.905	0.396	0.456
SETP20	1	0.638	0.481	0.429
DNAJB13	1	0.525	0.386	0.638
FAM114A2	1	-0.359	0.223	-0.773
FAM168A	1	0.405	-0.847	-0.272
RARS2	1	2.32 (active)	1.97	1.75
EPHA1	1	1.34	0.394	0.398
LINC02870	1	0.544	0.304	0.822
PRKCQ	1	-0.678	-0.986	-1.15
DDI2	1	0.491	0.469	0.551
DDI2	2	-0.72	-0.564	-0.205
NPTX1	1	0.284	-0.702	-0.415
CASKIN1	1	1.05	0.213	0.638
CAPN8	1	-0.0466	0.322	0.34
LOC387897 (retired record)	1	-1.44	-1.55	-1.21
ITPA	1	-0.796	-1.19	-0.693
MSANTD2	1	-0.101	-0.0384	-0.0254
BRCA1	1	-1.69	-1.53	-1.27
LOC440234 (retired record)	1	-2 (active)	-2.29	-2.04
KIF5B	1	1.13	0.00399	-0.147
CPT2	1	-2.88	0.012	0.517
SRCIN1	1	1.35	1.28	0.899
PABPC3	1	-0.533	0.105	-1.18
LAMTOR1	1	1.21	-0.221	-1.1
EPS8L2	1	-0.763	-0.406	-0.0385
LOC389469 (retired record)	1	-0.199	0.0956	-0.194
GBA2	1	-0.203	-0.922	-0.574
EMILIN1	1	-1.11	-1.2	-1.06
KIAA1755	1	-0.672	-0.328	-0.586
LOC441682 (retired record)	1	0.445	0.187	0.751
SCAMP1	1	1.64	2.62	1.86
NAA11	1	0.639	1.08	0.313
GOLIM4	1	1.1	-0.96	0.34
PPP1R2	1	-0.947	-1.55	-0.868
SLC4A1	1	-0.869	-0.998	-0.955
LOC440725 (retired record)	1	0.674	0.829	0.733
GRM6	1	0.526	-0.184	0.0509
CD53	1	-0.969	-0.365	-1.1
SSRP1	1	2.04 (active)	2.64	1.66
TMEM266	1	1.22	1.24	-0.0534
A2ML1	1	0.59	0.728	0.0371
CTNNBL1	1	-2.01 (active)	-0.661	-2.31
PENK	1	1.3	1.24	1.05
TGM3	1	0.292	0.0811	0.418
MAGEH1	1	0.32	0.451	0.74
OR13J1	1	-0.697	-0.333	-0.371
LCE1C	1	1.96	1.89	1.48
CORO1C	1	2.2	-0.959	-0.12
ELAC2	1	-0.382	-0.0646	-0.578
ATP2A1	1	-1.56	-1.42	-1.77
BCAN	1	0.821	1.08	0.567
ERICH5	1	1.9	0.935	1.01
JPT1	1	-1.55	0.63	0.334

5 entries from above in another layout.
| gene | pool no. | robust z-score, replicate 1 | robust z-score, replicate 2 | robust z-score, replicate 3 |
| --- | --- | --- | --- | --- |
| CTNNBL1 | 1 | -2.01 (active) | -0.661 | -2.31 |
| PENK | 1 | 1.3 | 1.24 | 1.05 |
| TGM3 | 1 | 0.292 | 0.0811 | 0.418 |
| MAGEH1 | 1 | 0.32 | 0.451 | 0.74 |
| OR13J1 | 1 | -0.697 | -0.333 | -0.371 |
